Experimental data as given in doi:10.1101/2022.08.24.505075.
No constants are given. Whether binding was seen depends on the method and setting. In cells and extracts the contact can be indirect.

Protein sequences, listed by entry. Tags and fused reporters are not part of them.
UniProt Q969H0: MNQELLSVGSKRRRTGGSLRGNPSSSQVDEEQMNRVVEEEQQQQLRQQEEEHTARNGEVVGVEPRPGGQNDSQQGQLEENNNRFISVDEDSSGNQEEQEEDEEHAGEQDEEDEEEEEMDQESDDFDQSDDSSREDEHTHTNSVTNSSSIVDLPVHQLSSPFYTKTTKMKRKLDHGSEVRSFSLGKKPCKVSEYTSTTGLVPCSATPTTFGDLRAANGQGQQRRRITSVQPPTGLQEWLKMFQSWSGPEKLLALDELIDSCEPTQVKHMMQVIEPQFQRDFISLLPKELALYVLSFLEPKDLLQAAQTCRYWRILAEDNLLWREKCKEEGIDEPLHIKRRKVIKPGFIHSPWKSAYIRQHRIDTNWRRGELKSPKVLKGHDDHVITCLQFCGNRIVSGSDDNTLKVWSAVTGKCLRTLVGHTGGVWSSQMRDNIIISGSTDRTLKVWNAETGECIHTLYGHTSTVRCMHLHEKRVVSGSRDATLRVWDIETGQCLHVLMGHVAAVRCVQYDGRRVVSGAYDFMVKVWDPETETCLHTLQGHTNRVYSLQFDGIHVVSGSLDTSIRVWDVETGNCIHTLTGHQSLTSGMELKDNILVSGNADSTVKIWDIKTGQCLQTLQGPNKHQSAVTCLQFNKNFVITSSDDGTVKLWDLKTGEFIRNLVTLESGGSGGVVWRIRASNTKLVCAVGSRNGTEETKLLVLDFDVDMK
UniProt Q03164: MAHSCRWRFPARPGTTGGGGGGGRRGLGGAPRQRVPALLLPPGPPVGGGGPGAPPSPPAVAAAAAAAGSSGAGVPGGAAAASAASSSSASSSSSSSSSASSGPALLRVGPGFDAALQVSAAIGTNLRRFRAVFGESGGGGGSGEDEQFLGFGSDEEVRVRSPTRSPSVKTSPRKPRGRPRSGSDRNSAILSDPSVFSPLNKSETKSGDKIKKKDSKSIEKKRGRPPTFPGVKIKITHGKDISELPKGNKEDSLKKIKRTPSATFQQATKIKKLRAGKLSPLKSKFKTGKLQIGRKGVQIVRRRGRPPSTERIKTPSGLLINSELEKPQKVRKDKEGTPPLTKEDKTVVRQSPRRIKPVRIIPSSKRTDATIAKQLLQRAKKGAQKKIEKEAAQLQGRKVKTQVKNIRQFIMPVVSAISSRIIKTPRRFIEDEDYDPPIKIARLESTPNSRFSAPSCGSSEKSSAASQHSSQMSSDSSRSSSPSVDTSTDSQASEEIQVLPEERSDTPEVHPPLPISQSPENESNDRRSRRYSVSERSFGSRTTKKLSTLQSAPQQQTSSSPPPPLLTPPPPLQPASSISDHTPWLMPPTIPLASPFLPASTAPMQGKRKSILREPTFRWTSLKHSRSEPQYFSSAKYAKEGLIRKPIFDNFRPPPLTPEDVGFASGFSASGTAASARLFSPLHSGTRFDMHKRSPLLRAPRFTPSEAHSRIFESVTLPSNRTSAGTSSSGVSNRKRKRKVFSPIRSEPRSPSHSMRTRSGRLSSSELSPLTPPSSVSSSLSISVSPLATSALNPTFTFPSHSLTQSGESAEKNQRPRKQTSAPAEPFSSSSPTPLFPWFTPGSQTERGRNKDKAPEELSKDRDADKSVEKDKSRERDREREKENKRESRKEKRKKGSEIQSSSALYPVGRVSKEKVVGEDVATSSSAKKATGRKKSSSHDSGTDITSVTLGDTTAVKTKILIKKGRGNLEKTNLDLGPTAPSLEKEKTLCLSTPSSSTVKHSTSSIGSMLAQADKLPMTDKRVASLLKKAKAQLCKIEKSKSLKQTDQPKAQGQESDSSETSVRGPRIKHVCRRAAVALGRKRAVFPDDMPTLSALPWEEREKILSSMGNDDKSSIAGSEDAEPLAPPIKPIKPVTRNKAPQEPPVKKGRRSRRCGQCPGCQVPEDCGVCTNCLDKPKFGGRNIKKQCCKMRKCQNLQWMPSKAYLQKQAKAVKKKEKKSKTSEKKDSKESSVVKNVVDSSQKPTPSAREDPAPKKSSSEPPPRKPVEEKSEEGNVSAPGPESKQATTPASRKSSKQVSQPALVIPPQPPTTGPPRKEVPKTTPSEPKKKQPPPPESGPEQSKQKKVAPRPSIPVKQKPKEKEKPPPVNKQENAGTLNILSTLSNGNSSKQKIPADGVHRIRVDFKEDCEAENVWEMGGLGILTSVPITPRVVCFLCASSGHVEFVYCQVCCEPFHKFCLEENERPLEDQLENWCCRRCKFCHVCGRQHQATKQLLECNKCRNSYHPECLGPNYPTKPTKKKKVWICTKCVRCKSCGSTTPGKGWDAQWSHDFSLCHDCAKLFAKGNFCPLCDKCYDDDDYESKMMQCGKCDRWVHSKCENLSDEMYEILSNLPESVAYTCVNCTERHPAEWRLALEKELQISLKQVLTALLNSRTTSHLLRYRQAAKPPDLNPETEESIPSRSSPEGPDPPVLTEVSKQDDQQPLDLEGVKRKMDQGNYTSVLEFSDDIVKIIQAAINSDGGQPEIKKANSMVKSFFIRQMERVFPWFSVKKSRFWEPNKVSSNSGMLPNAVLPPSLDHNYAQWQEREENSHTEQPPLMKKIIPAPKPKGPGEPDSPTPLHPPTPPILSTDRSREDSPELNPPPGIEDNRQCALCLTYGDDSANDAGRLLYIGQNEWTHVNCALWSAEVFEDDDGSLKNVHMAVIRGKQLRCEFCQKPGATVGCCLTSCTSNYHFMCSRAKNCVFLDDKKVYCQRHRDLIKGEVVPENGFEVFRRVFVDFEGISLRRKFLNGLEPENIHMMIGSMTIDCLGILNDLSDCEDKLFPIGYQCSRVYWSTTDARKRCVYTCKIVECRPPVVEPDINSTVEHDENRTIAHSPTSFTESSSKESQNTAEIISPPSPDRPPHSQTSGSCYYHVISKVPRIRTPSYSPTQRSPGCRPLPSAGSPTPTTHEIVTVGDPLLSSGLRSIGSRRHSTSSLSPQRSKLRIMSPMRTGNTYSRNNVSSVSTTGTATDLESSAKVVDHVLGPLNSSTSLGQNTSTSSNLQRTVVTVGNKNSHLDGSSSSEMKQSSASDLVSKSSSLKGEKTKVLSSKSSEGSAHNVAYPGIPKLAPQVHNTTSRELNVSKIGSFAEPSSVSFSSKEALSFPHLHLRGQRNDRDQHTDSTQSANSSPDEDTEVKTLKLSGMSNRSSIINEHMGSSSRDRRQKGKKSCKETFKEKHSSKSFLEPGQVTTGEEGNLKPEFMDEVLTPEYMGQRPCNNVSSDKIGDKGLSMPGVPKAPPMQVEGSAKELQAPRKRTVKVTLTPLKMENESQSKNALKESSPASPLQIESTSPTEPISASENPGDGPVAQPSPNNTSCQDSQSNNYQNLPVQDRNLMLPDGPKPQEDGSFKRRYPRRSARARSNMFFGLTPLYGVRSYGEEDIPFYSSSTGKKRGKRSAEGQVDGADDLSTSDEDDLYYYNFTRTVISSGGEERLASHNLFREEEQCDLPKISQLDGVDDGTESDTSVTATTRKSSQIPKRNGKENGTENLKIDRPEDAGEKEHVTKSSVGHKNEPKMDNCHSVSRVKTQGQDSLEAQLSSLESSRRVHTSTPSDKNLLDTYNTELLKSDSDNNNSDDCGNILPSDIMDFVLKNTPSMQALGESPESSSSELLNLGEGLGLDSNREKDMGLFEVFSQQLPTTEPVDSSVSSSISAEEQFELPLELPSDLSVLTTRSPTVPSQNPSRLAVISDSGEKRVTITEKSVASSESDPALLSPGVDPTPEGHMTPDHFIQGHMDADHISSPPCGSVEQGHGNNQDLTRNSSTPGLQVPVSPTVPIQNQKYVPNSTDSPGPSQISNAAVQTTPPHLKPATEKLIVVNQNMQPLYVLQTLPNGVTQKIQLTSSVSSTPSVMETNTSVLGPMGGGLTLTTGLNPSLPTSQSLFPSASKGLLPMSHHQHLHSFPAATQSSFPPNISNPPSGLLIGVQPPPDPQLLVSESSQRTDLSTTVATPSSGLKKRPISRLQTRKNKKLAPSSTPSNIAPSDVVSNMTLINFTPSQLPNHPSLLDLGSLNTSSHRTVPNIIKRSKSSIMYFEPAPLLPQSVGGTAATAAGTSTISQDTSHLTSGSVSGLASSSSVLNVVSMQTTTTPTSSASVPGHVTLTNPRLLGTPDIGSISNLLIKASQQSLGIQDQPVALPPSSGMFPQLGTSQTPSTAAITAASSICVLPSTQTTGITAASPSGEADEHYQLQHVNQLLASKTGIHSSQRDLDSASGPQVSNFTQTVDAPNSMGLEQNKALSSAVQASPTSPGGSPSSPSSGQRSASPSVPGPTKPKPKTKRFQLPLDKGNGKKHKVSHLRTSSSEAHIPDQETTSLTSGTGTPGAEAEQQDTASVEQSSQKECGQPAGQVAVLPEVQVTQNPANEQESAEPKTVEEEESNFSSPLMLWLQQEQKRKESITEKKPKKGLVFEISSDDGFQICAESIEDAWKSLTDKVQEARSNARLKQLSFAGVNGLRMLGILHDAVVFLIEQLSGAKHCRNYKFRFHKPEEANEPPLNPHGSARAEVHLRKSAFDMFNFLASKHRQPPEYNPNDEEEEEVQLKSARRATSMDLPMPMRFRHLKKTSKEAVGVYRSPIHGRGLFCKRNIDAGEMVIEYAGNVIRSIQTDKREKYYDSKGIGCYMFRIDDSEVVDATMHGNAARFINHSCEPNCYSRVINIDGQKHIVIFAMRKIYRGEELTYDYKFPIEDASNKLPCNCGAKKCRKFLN
UniProt O15047: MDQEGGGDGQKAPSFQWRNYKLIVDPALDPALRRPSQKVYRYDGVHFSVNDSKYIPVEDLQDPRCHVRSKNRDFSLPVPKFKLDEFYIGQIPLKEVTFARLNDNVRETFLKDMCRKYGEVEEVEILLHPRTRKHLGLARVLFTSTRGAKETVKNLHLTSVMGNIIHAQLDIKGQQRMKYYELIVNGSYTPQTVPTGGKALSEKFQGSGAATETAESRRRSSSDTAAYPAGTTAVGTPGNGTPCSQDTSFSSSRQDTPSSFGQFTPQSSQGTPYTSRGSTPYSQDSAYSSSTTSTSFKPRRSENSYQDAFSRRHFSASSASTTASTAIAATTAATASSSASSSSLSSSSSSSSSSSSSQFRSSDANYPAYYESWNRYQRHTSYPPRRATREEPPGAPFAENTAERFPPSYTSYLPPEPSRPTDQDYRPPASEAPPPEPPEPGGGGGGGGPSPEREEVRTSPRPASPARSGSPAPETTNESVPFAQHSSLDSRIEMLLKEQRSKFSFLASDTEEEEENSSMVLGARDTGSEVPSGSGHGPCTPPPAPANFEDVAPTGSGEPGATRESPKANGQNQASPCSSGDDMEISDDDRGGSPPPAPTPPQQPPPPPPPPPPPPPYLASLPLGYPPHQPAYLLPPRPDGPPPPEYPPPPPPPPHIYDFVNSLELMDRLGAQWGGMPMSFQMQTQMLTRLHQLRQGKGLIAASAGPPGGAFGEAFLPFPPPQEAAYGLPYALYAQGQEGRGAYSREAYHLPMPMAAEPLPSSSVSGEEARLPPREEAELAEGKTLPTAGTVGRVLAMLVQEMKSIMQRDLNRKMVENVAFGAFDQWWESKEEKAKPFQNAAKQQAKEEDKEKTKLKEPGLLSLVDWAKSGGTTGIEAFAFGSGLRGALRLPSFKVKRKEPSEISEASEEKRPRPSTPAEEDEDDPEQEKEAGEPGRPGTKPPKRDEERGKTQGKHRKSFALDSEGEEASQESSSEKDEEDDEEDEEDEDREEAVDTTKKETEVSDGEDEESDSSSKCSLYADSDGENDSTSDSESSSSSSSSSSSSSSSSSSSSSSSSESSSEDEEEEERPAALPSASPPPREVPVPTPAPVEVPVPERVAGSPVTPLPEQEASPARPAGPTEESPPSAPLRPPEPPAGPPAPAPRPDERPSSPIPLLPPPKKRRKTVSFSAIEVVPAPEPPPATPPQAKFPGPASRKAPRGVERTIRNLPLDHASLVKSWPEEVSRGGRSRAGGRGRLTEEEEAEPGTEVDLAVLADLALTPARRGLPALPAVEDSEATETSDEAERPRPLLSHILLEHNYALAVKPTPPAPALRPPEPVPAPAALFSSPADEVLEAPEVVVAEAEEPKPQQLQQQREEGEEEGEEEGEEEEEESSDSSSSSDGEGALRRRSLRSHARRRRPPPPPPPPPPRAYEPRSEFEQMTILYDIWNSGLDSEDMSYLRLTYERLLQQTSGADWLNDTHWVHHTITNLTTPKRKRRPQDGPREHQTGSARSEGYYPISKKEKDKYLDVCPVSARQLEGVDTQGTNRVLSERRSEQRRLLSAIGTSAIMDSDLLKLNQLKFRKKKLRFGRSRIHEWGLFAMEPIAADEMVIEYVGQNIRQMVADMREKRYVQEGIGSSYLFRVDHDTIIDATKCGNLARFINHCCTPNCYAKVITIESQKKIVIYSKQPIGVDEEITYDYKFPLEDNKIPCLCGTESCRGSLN

Molecular target: Flag-tagged FBXW7α (human) (UniProt Q969H0)
Assay: co-IP

binding | Substance
no binding | MLL1 (from UniProt Q03164 1-3969)
no binding | SetD1A (from UniProt O15047 1-1707)
